Three substances from US6762281 (dated 2004) can be followed below.

Where “and” joins values, the source holds several entries; their conditions need not be identical. Identical values can stand only once.

Series [1] is described as follows: peptide synthesis. To be noted: conjugation step, Na+ / OAc- salt.
A short description of series [2]: peptide synthesis. Conditions: conjugation step, Na+ / OAc- salt. This is another data set of the same source.

“Conjugate of (TG)2ctat2c(tg)2A2T2 and Antennapaedia peptide (AcC(SH)-GABA-G2RQIKIWFQNR2MKWK2-amide) (SEQ ID NO: 7)”: in series [1], the conjugation yield was determined as 80%.

Turning to “SEQ ID No. 1 (13920-3′-Antp) conjugate; Antennapedia peptide: C(N-Ac)-GABA-GGRQIKIWFQNRLRMKWKK-amide”, in series [2], the “final HPLC purity” value came to 95%. Moreover, the conjugation yield in series [2] (run 1) was 80% and 60%.

Consider “SEQ ID No. 6 (102578-3′-RGD) conjugate; Bicyclic RGD peptide: 3-mercaptopropionyl-GABA-GGACDCRGDCFCG-amide”, for which, in series [1], the conjugation yield is recorded as 62% and the difficulty met result was “more than 40% of the starting material remained unreacted”. In addition, the “final LC-MS purity” value in series [1] (reversed phase HPLC and ion exchange HPLC) is listed as 75%.
